In PMC4272302:
Results are given in words; binding and its absence hold for the method and conditions named. Some results given as binding are weak or reduced against the parent protein; the word gives no strength.

Chains of the proteins cited; added tags and fusions are not shown.
UniProt Q14BB9: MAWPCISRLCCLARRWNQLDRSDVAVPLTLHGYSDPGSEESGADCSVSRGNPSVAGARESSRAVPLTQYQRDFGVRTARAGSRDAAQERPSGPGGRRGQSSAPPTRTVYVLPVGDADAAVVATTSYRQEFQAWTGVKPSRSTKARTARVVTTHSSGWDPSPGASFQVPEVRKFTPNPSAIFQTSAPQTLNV

Molecular target: LexA-MAP6d1 (mouse) (UniProt Q14BB9)
Assay: two-hybrid; yeast two-hybrid, LexA bait (pLex10) and GAD prey (pAct2); growth on medium lacking leucine, tryptophan and histidine, and β-galactosidase staining

binding: binds
B1: MAP6-E (protein, UniProt Q7TSJ2-2 1-568)
chain: MAWPCITRACCIARFWNQLDKADIAVPLVFTKYSEATEHPGAPPQPPAPLQPALAPPSRAVAIETQPAQGESDAVARATGPAPGPSVDRETVAAPGRSGLGLGAASASTSGSGPADSVMRQDYRAWKVQRPEPSCRPRSEYQPSDAPFERETQYQKDFRAWPLPRRGDHPWIPKPVQIPATSQPSQPVLGVPKRRPQSQERGPMQLSADARDPEGAGGAGVLAAGKASGVDQRDTRRKAGPAWMVTRNEGHEEKPLPPAQSQTQEGGPAAGKASGADQRDTRRKAGPAWMVTRSEGHEEKPLPPAQSQTQEGGPAAGKASGADQRDTRRKAGPAWMVTRTEGHEETPLPPAQSQTQEGGPAAGKASGADERDTRRKAGPAWMVRRSEGHEQTPAAHAQGTGPEGGKGRAVADALNRQIREEVASTVSSSYRNEFRAWTDIKPVKPIKAKPQYKPPDDKMVHETSYSAQFKGEANKPSAADNKAMDRRRIRSLYSEPFKECPKVEKPSVQSSKPKKTSTSHKPPRKAKDKQVVSGQAAKKKTTEGPSATKPDDKEQSKEMNNKLAEAKE
